PubChem BioAssay AID1159584 | Peter MacCallum Cancer Centre, 2016

Screen: 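Genes whose loss is lethal only together with E-cadherin loss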 (primary screen)
System: human MCF10A breast epithelial cells, parental and CDH1-null
Reagents: siRNA against human genes
Measurement: 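Cell viability by CellTiter-Glo ATP luminescence, each line scaled to the mean of mock wells across plates, then CDH1-null over parental ratio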
Reading the numbers: CDH1-null / parental viability ratio: higher = CDH1-null cells survive relatively better than parental; CDH1-null viability vs mock: higher = more viable CDH1-null cells
The deposit covers about 18,000 reagents; this is a part drawn at random. Further read-outs or replicates are left out here. Not given: the amount of reagent, the time to read-out.

With knock-down of GRK3 (G protein-coupled receptor kinase 3) the results were CDH1-null / parental viability ratio 0.91; CDH1-null viability vs mock (fraction of mock) = 1. With knock-down of LSAMP (limbic system associated membrane protein), the screen gave CDH1-null / parental viability ratio 1.11; CDH1-null viability vs mock (fraction of mock) = 0.62. SV2A (synaptic vesicle glycoprotein 2A) gave CDH1-null / parental viability ratio 0.95; CDH1-null viability vs mock (fraction of mock) = 0.94. Silencing of TCTN1 (tectonic family member 1) resulted in: CDH1-null / parental viability ratio 0.9; CDH1-null viability vs mock (fraction of mock) = 0.9. GOLM1 (golgi membrane protein 1) showed CDH1-null / parental viability ratio 1.16; CDH1-null viability vs mock (fraction of mock) = 1.09. Depletion of C2CD3 (C2 domain containing 3 centriole elongation regulator) resulted in: CDH1-null / parental viability ratio 1.02; CDH1-null viability vs mock (fraction of mock) = 0.46.

Knock-down of LRPPRC (leucine rich pentatricopeptide repeat containing) gave: CDH1-null / parental viability ratio 0.88; CDH1-null viability vs mock (fraction of mock) = 0.65. Against OXNAD1 (oxidoreductase NAD binding domain containing 1), the entry reads CDH1-null / parental viability ratio 0.7; CDH1-null viability vs mock (fraction of mock) = 0.62. Silencing of SGCZ (sarcoglycan zeta) came out at: CDH1-null / parental viability ratio 0.9; CDH1-null viability vs mock (fraction of mock) = 0.46. Depletion of ADAM29 (ADAM metallopeptidase domain 29) resulted in: CDH1-null / parental viability ratio 1.09; CDH1-null viability vs mock (fraction of mock) = 0.48. After knock-down of C5orf24 (chromosome 5 open reading frame 24), the record shows CDH1-null / parental viability ratio 1.06; CDH1-null viability vs mock (fraction of mock) = 0.84. With knock-down of GANAB (glucosidase II alpha subunit) the results were CDH1-null / parental viability ratio 1.1; CDH1-null viability vs mock (fraction of mock) = 0.86.

For VEGFB (vascular endothelial growth factor B), the values are CDH1-null / parental viability ratio 0.88; CDH1-null viability vs mock (fraction of mock) = 0.45. Depletion of TRPV6 resulted in: CDH1-null / parental viability ratio 1.31; CDH1-null viability vs mock (fraction of mock) = 0.92. For NCAM1 (neural cell adhesion molecule 1), the entry reads CDH1-null / parental viability ratio 0.79; CDH1-null viability vs mock (fraction of mock) = 0.38. Against RYK (receptor like tyrosine kinase), the entry reads CDH1-null / parental viability ratio 0.93; CDH1-null viability vs mock (fraction of mock) = 0.76. Against CD209 (CD209 molecule), the entry reads CDH1-null / parental viability ratio 1.1; CDH1-null viability vs mock (fraction of mock) = 0.77. RASL10B (RAS like family 10 member B) scored CDH1-null / parental viability ratio 1.19; CDH1-null viability vs mock (fraction of mock) = 1.02.

For RNASEL (ribonuclease L), the entry reads CDH1-null / parental viability ratio 0.96; CDH1-null viability vs mock (fraction of mock) = 0.92. PIWIL3 (piwi like RNA-mediated gene silencing 3) scored CDH1-null / parental viability ratio 1.24; CDH1-null viability vs mock (fraction of mock) = 1.02. FMO3 (flavin containing dimethylaniline monoxygenase 3) showed CDH1-null / parental viability ratio 1.11; CDH1-null viability vs mock (fraction of mock) = 0.93. With knock-down of LIG4 (DNA ligase 4), the screen gave CDH1-null / parental viability ratio 0.9; CDH1-null viability vs mock (fraction of mock) = 0.88. With knock-down of CASQ1 (calsequestrin 1) the results were CDH1-null / parental viability ratio 0.62; CDH1-null viability vs mock (fraction of mock) = 0.44. SLC7A2 gave CDH1-null / parental viability ratio 0.96; CDH1-null viability vs mock (fraction of mock) = 0.9.

Knock-down of SPATA22 (spermatogenesis associated 22) came out at: CDH1-null / parental viability ratio 0.86; CDH1-null viability vs mock (fraction of mock) = 0.77. Silencing of SORBS1 (sorbin and SH3 domain containing 1) resulted in: CDH1-null / parental viability ratio 1.12; CDH1-null viability vs mock (fraction of mock) = 0.92. ZNF680 (zinc finger protein 680) showed CDH1-null / parental viability ratio 0.81; CDH1-null viability vs mock (fraction of mock) = 0.8. Silencing of SCARB2 (scavenger receptor class B member 2) came out at: CDH1-null / parental viability ratio 1.02; CDH1-null viability vs mock (fraction of mock) = 0.82. After knock-down of ZNF584 (zinc finger protein 584), the screen gave CDH1-null / parental viability ratio 1.04; CDH1-null viability vs mock (fraction of mock) = 0.59. LRRC73 (leucine rich repeat containing 73) showed CDH1-null / parental viability ratio 0.92; CDH1-null viability vs mock (fraction of mock) = 0.59.

Depletion of RBBP8NL (RBBP8 N-terminal like) resulted in: CDH1-null / parental viability ratio 0.98; CDH1-null viability vs mock (fraction of mock) = 0.79. After knock-down of ALPP (alkaline phosphatase, placental) the results were CDH1-null / parental viability ratio 1.2; CDH1-null viability vs mock (fraction of mock) = 0.84. Against FOCAD (focadhesin) the deposit lists CDH1-null / parental viability ratio 0.98; CDH1-null viability vs mock (fraction of mock) = 0.89. With knock-down of FAM9B (family with sequence similarity 9 member B), the screen gave CDH1-null / parental viability ratio 1.06; CDH1-null viability vs mock (fraction of mock) = 1.1. With knock-down of C14orf39 (chromosome 14 open reading frame 39) the results were CDH1-null / parental viability ratio 1.12; CDH1-null viability vs mock (fraction of mock) = 0.96.

4 entries from above in another layout:
gene knocked down | CDH1-null / parental viability ratio | CDH1-null viability vs mock (fraction of mock)
ZNF680 (zinc finger protein 680) | 0.81 | 0.8
SCARB2 (scavenger receptor class B member 2) | 1.02 | 0.82
ZNF584 (zinc finger protein 584) | 1.04 | 0.59
LRRC73 (leucine rich repeat containing 73) | 0.92 | 0.59
